Results published in patent US20190183960A1, “METHOD TO TREAT ASTHMA AND AIRWAY ALLERGY USING CYCLO TYROSINE-VALINE AND RELATED COMPOUNDS” (Chang Gung Biotechnology Corp., priority 2017, published 2019).
For at least one compound, name, drawing or mass did not settle the structure.

Test system: OVA-induced asthmatic mice
Assay: Treatment after establishment of OVA-induced AHR, comparison with dexamethasone
Format: in vivo, BALB/c mice
Details: oral 3 mg/kg per day, day 28 to 34, positive control
Method: In this example, the anti-asthmatic effect of cyclo Tyr-Val was compared with those of dexamethasone, a pharmaceutical drug conventionally used to treat asthma. OVA-induced asthmatic mice (BALB/c) were established according to the method described in Example 2. The mice were treated with 2% OVA using a nebulizer on day 30 and 33 and were intraperitoneally treated with the vehicle (0.5% DMSO in saline) or cyclo Tyr-Val (at a dose of 11.304 nmol/kg of body weight per day) on day 28 to 34, followed by measurement of AHR, total cell count in BALF, and eosinophil count in BALF. Another group of OVA-induced asthmatic mice that were treated orally with dexamethasone (at a dose of 3 mg/kg of body weight per day) on day 28 to 34 were used as a positive control.

C[C@@H]1C[C@H]2[C@@H]3CCC4=CC(=O)C=C[C@]4(C)[C@@]3(F)[C@@H](O)C[C@]2(C)[C@@]1(O)C(=O)CO [dexamethasone, reference compound]
inhibitory effects: AHR | BALF eosinophil accumulation | BALF total cell count
